Reference: PubChem BioAssay AID2417 (National Center for Advancing Translational Sciences (NCATS), 2010)
Out of some 140,000 compounds screened, about 4,300 (3.1%) were called active. This list was built around the results that the source calls inconclusive (neither active nor inactive); the mix of calls is not that of the screen.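 Rule for the calls: active = readout at or below -70, meaning at least 70% loss of cells showing the perinucleolar compartment, a nuclear body marking cancer cells; inconclusive = readout between -30 and a set limit; inactive = the rest.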

Test: High Content Assay for Compounds that inhibit the Assembly of the Perinucleolar Compartment;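 note: plate controls were DMSO wells for no effect and camptothecin positive control wells for full effect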
Conditions: PC3M PTB-GFP, PNC prevalence imaging, 16 h; at 10 µM; stronger effect = lower value
In short: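 Compounds are pinned in duplicate onto adhered PC3M cells stably expressing GFP-tagged PTB and incubated 16 h at 37 C. Cells are then fixed, nuclei stained with Hoechst, and PNC-positive cells counted.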

SMILES | activity change (PNC), negative = inhibition
O=C(c1cccc(C(=O)N2CCc3ccccc32)n1)N1CCc2ccccc21 | inactive: 8.65%
Cc1ccc(-c2noc(CCC(=O)NCCc3ccccc3Cl)n2)cc1 | inconclusive: -45.4%
CN(CC(=O)Nc1cccc2ccccc12)C(=O)/C=C/c1cccs1 | inconclusive: -50.5%
CCNC(=O)c1ccc(C2SCC(=O)N2CCc2ccccc2)cc1 (centres undefined) | inactive: 15.7%
COc1ccc(C)cc1NC(=O)Cn1cnc2sc(C)c(S(=O)(=O)N3CCOCC3)c2c1=O | active: -100%
C=CCOC(=O)C1=C(C)Nc2nnnn2C1c1ccc(OC)cc1OC (centres undefined) | inactive: 57.7%
COc1ccc(OCC(=O)N2CCOCC2)cc1 | inactive: -29.5%
N#C/C(=C(/O)COC(=O)CCc1ccc(S(=O)(=O)N2CCOCC2)cc1)c1nc2ccccc2[nH]1 | inconclusive: -50.6%
O=C(CCCn1c(=S)[nH]c2ccccc2c1=O)N1CCCCC1 | inactive: -13.5%
Cc1ccc(C(=O)Nc2c(-c3cccs3)nc3cc(C)ccn23)cc1 | inconclusive: -62.5%
CCCCCCn1c(-c2ccco2)nc2oc3cc(OC)ccc3c(=O)c2c1=O | inconclusive: -33.3%
COc1ccc(CN2C(=O)CC(Cc3ccc(C)cc3)C2=O)cc1OC (centres undefined) | inconclusive: -32.6%
Cn1nc(OCC(N)=O)ccc1=O | active: -100%
CCOC(=O)c1nn(-c2ccc(Br)cc2)cc1C(=O)c1cccc2ccccc12 | inconclusive: -37.4%
COCC(C)NCc1cccc([N+](=O)[O-])c1 (centres undefined) | inconclusive: -34.3%
Cc1ccc(NC(=O)COC(=O)Cn2cnc3ccccc32)cc1S(=O)(=O)N(C)C | inactive: 43.9%
CCN(CCO)Cc1csc2ccc(C(C)(C)C)cc12 | inconclusive: -79.6%
CN(C)c1cccc(C(=O)OC(C(=O)Nc2ccc(Cl)cc2C(F)(F)F)c2ccccc2)c1 (centres undefined) | inconclusive: -40.2%
COc1ccccc1CNC(=O)CCCc1ccccc1 | inconclusive: -57.8%
CC1(C)C2CCC1(C)C(OCC[N+](C)(C)CC(=O)OC1CCCCC1)C2 (centres undefined) | inconclusive: -51.5%
CC(C)c1ccc(OCC(=O)NCCO)cc1 | inconclusive: -38.5%
COC(=O)CCC(=O)NC(=S)Nc1sc(C)c(C)c1C(N)=O | active: -124%

SMILES | activity change (PNC), negative = inhibition
COc1ccccc1NC(=S)N1CCc2cc(OC)c(OC)cc2C1 | inconclusive: -48.2%
Clc1ccc(-c2ccc(C=Nc3ccc(N4CCOCC4)cc3)o2)cc1 | inconclusive: -40.6%
O=C(CSc1nnnn1-c1ccccc1)N1CCc2ccccc2C1 | inactive: -24.7%
CCN(C1CCCCC1)S(=O)(=O)c1cc(C)ccc1OC | inconclusive: -56.8%
CCCC(=O)NNc1c2ccccc2nc2ccccc12 | inactive: -3.58%
COc1cccc(-n2c(Cc3cc(=O)[nH]c(=O)[nH]3)nnc2SCC(=O)N2CCC(C)CC2)c1 | inconclusive: -60.4%
O=C(COC(=O)CCc1c[nH]c2ccccc12)NC(c1ccccc1)c1ccccc1 | inconclusive: -49.8%
O=C1C2CCCN2C(c2ccccc2F)N1c1ccc(F)cc1 (centres undefined) | inconclusive: -48.8%
CCOC(=O)c1cnc(Nc2nc3ccccc3o2)nc1CN1CCN(C)CC1 | inactive: 28.7%
CCCC(c1nnnn1Cc1cccs1)N1CCN(c2nc3ccccc3s2)CC1 (centres undefined) | inconclusive: -78.5%
O=C(CSc1nnc(-c2cccnc2)n1Cc1ccco1)N1CCc2ccccc21 | inconclusive: -33%
OCCNc1nc(Nc2ccccc2)nc2ccccc12 | active: -119%
O=C1c2ccccc2CCC1C(O)c1ccccn1 (centres undefined) | inconclusive: -78.9%
Cc1ccc(Cn2cccc(-c3nc4ccccc4s3)c2=O)cc1 | inconclusive: -65.3%
C=CCSC1=N/C(=C\c2sccc2C)C(=O)S1 | inactive: -4.64%
Cc1c(NC(=O)CSc2nnnn2Cc2ccccc2)c(=O)n(-c2ccccc2)n1C | inactive: -0.767%
O=C(COc1ccc(/C=N/NC(=O)C(=O)N2CCCCCC2)cc1)Nc1ccccc1Cl | inconclusive: -33%
Cn1c(Sc2nc3ccccc3n2C)nc2ccccc21 | inconclusive: -40.7%
COc1cc(OC)cc(C(=O)Nc2nc(-c3ccccc3)c(-c3ccccc3)o2)c1 | inconclusive: -46.6%
O=C(Cn1nc(-c2ccccc2)nc1-c1ccccc1)N1CCOCC1 | inconclusive: -31.1%
O=C1C(C2=NC(C(=O)O)C3C(=O)N(c4ccccc4)C(=O)C23)=C(O)c2ccccc21 (centres undefined) | inconclusive: -44.6%
N=c1n(CC(=O)c2ccc([N+](=O)[O-])cc2)c2ccccc2n1Cc1ccccc1Cl | active: -87.8%

By substructure: the compounds so far containing a nitro group on carbon
SMILES | activity change (PNC), negative = inhibition
COCC(C)NCc1cccc([N+](=O)[O-])c1 (centres undefined) | inconclusive: -34.3%
N=c1n(CC(=O)c2ccc([N+](=O)[O-])cc2)c2ccccc2n1Cc1ccccc1Cl | active: -87.8%
